Test results: patent publication US6617354B1, “Method of stabilizing and potentiating the action of anti-angiogenic substances” (priority 2000, dated 2003)
For part of these data: At least one structure is not confirmed: it was looked up by name or label, or the drawing left a doubt. Some results were stated once for a whole list of compounds, not compound by compound.

Legend:
tumor cells [1] = experiment: Mixed culture of normal and tumor cells; type: cell-based; settings: normal and tumor cells grown together
Source text: (§1) Tumor cells are not only deficient in PUFAs but also have low rate(s) of lipid peroxidation, contain relatively large amounts of antioxidants such as vitamin E and superoxide dismutase (SOD). It is also believed that low rates of lipid peroxidation and consequent low amounts of lipid peroxides in the cells can contribute to an increase in the mitotic process which ultimately leads to an increase in cell proliferation. Thus, a deficiency of PUFAs, high amounts of antioxidants and the presence of low amounts of lipid peroxides in the tumor cells can contribute to the growth of tumor cells.

skin papilloma = experiment: Skin papilloma in mice; type: in vivo; settings: pure fatty acid or fatty acid rich oils
ascitic tumor cells = experiment: Ascitic tumor cells in the peritoneum of experimental animals; type: in vivo; settings: pure fatty acid or fatty acid rich oils
KB-chR 8-5 cells = experiment: Vincristine resistant KB-8-5 tumor cells; type: cell-based
hepatoma = experiment: Hepatoma in rats; type: in vivo; settings: pure fatty acid or fatty acid rich oils
tumor cells [2] = experiment: Potentiation of anti-cancer drugs by PUFAs in tumor cells; type: cell-based; settings: combination with the fatty acid
[3] = system: TNF resistant L-929 tumor cells; experiment: TNF resistant L-929 tumor cells in vitro; type: cell-based; settings: for killing of TNF resistant L-929 tumor cells: in vitro; for sensitisation of TNF-resistant L-929 cells to TNF: prior treatment with the fatty acid
tumor cells [4] = experiment: PUFAs on tumor cells and normal cells in vitro; type: cell-based; settings: for tumor cell proliferation: in vitro; for selective killing of tumor cells versus normal cells: tumor cells and normal cells in vitro
Source text: as §1
Essential fatty acids are precursors of eicosanoids and are important structural components of cell membranes. They also provide the substrates for the generation of lipid peroxidation products which have an inhibitory action on cell proliferation. Tumor cells are known to have low delta-6-desaturase activity, an enzyme necessary for the desaturation of dietary linoleic acid (LA, 18:2, n-6) and alpha-linolenic acid (ALA, 18:3, n-3) to their respective products. […] This selective tumoricidal action of fatty acids seems to be mediated by free radicals and lipid peroxides.

[5] = system: corneal plasminogen synthesis; settings: cornea; cited from earlier work

CC/C=C\C/C=C\C/C=C\C/C=C\C/C=C\CCCC(=O)O [EPA, eicosapentaenoic acid]
selective tumoricidal action in mixed culture (tumor cells [1]): effective to some extent
growth of skin papilloma (skin papilloma): inhibit the growth
growth of ascitic tumor cells in the peritoneum (ascitic tumor cells): inhibit the growth
sensitisation of vincristine resistant KB-8-5 cells to vincristine (KB-chR 8-5 cells): made sensitive
formation and growth of hepatoma (hepatoma): inhibit the growth
cellular uptake of anti-cancer drugs by the tumor cells (tumor cells [2]): enhance the cellular uptake
killing of TNF resistant L-929 tumor cells [3]: able to kill
sensitisation of TNF-resistant L-929 cells to TNF [3]: rendered TNF sensitive
tumor cell proliferation (tumor cells [4]): decrease tumor cell proliferation
selective killing of tumor cells versus normal cells (tumor cells [4]): only tumor cells are killed

CC/C=C\C/C=C\C/C=C\C/C=C\C/C=C\C/C=C\CCC(=O)O [DHA, docosahexaenoic acid]
selective tumoricidal action in mixed culture (tumor cells [1]): effective to some extent
growth of skin papilloma (skin papilloma): inhibit the growth
growth of ascitic tumor cells in the peritoneum (ascitic tumor cells): inhibit the growth
sensitisation of vincristine resistant KB-8-5 cells to vincristine (KB-chR 8-5 cells): made sensitive
formation and growth of hepatoma (hepatoma): inhibit the growth
cellular uptake of anti-cancer drugs by the tumor cells (tumor cells [2]): enhance the cellular uptake
killing of TNF resistant L-929 tumor cells [3]: able to kill
sensitisation of TNF-resistant L-929 cells to TNF [3]: rendered TNF sensitive
tumor cell proliferation (tumor cells [4]): decrease tumor cell proliferation
selective killing of tumor cells versus normal cells (tumor cells [4]): only tumor cells are killed

interleukin-1 alpha: cytokine
stimulation of corneal plasminogen synthesis [5]: 2 to 3 fold
